# Results: article PMC4768221, “Subcellular localization of anthracyclines in cultured rat cardiomyoblasts as possible predictors of cardiotoxicity” (Investigational New Drugs, 2015)
# Several values for one entry are separate records, joined by “and”; a condition that tells them apart may be missing. Identical values can stand only once.
# System: H9c2(2-1) cells
# Assay: Subcellular localization (fluorescence microscopy, densitometry)
# Format: cell-based, rat
# Settings: 10 μM, 1 h, 37 °C; for % of drug localized in the nucleus: densitometry, 25 individual cells ± S.D.
SMILES,Subcellular localization (fluorescence images),% of drug localized in the nucleus
COc1cccc2c1C(=O)c1c(O)c3c(c(O)c1C2=O)C[C@@](O)(C(C)=O)C[C@@H]3O[C@H]1C[C@H](N=CN2CCOCC2)[C@H](O)[C@H](C)O1 [DRBM],localized primarily in the cytoplasm,19.9% and 19.9 ± 1.4%
"COc1cccc2c1C(=O)c1c(O)c3c(c(O)c1C2=O)C[C@@](O)(C(=O)CO)C[C@@H]3O[C@H]1C[C@H](N)[C@H](O)[C@H](C)O1 [DOX, doxorubicin, reference compound]",accumulated preferentially in cell nuclei,80.2% and 80.2 ± 3.1%
COc1cccc2c1C(=O)c1c(O)c3c(c(O)c1C2=O)C[C@@](O)(C(=O)CO)C[C@@H]3O[C@H]1C[C@H](N=CN2CCCCCC2)[C@H](O)[C@H](C)O1 [DOXH],accumulated preferentially in cell nuclei,54.2% and 54.2 ± 6.2%
"COc1cccc2c1C(=O)c1c(O)c3c(c(O)c1C2=O)C[C@@](O)(C(C)=O)C[C@@H]3O[C@H]1C[C@H](N)[C@H](O)[C@H](C)O1 [DRB, daunorubicin, reference compound]",present in both the nucleus and cytoplasm,35.8 ± 4.1%
COc1cccc2c1C(=O)c1c(O)c3c(c(O)c1C2=O)C[C@@](O)(C(=O)CO)C[C@@H]3O[C@H]1C[C@H](N=CN2CCOCC2)[C@H](O)[C@H](C)O1 [DOXM],primarily in the cytoplasm,23.7% and 23.7 ± 1.0%
COc1cccc2c1C(=O)c1c(O)c3c(c(O)c1C2=O)C[C@@](O)(C(C)=O)C[C@@H]3O[C@H]1C[C@H](N=CN2CCCCCC2)[C@H](O)[C@H](C)O1 [DRBH],localized primarily in the cytoplasm,21.9% and 21.9 ± 2.1%
